Laboratory results: PubChem BioAssay AID1159578 (Peter MacCallum Cancer Centre, 2015)

Screen: 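Genome-wide hunt for genes controlling movement of lymphatic endothelial cells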 (primary screen)
Cell system: human lymphatic endothelial cells
Reagent: siRNA pool against human genes, 40 nM
Timing: 48 h after transfection
Read-out: 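Cells stained with dye and imaged after a scratch; covered wound area and nuclei counted, duplicates averaged, migration set against mock wells and turned into a robust z-score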
Reading the numbers: migration robust z-score: higher = faster migration into the scratch; nuclei per well: higher = more cells in the well
Hit rule: 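Pools averaging fewer than 3300 nuclei are never called; remaining pools count as changed when migration robust z lies outside -2 to 2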
Meaning of the calls: active = migration changed; inactive = no migration change, or too few cells
Shown is a random part of about 18,000 reagents tested. Of all reagents, about 1,030 (5.7%) are marked active. 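Inactive calls also include pools with fewer than 3300 nuclei, whose migration was not assessed.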 Raw values vary from plate to plate and are shown uncorrected. Entries without a mark were called inactive. Further read-outs or replicates are left out here.

{"gene": "GOLM1 (golgi membrane protein 1)", "PubChem SID": "SID255357612", "migration robust z-score": 1.58, "nuclei per well, duplicate mean": 6592}
{"gene": "MNT (MAX network transcriptional repressor)", "PubChem SID": "SID255351010", "migration robust z-score": 0.62, "nuclei per well, duplicate mean": 6690}
{"gene": "TPGS2 (tubulin polyglutamylase complex subunit 2)", "PubChem SID": "SID255356568", "migration robust z-score": -1.05, "nuclei per well, duplicate mean": 4054}
{"gene": "ING3 (inhibitor of growth family member 3)", "PubChem SID": "SID255358086", "migration robust z-score": -0.73, "nuclei per well, duplicate mean": 3429}
{"gene": "RSPH3 (radial spoke head 3)", "PubChem SID": "SID255361105", "migration robust z-score": -0.75, "nuclei per well, duplicate mean": 6302}
{"gene": "BTNL9 (butyrophilin like 9)", "PubChem SID": "SID255363570", "migration robust z-score": 0.61, "nuclei per well, duplicate mean": 6136}
{"gene": "LYPD3 (LY6/PLAUR domain containing 3)", "PubChem SID": "SID255356904", "migration robust z-score": 0, "nuclei per well, duplicate mean": 4801}
{"gene": "PRMT7 (protein arginine methyltransferase 7)", "PubChem SID": "SID255358043", "migration robust z-score": -1.4, "nuclei per well, duplicate mean": 3606}
{"gene": "WDR37 (WD repeat domain 37)", "PubChem SID": "SID255355845", "migration robust z-score": 0.25, "nuclei per well, duplicate mean": 5455}
{"gene": "TLX3 (T cell leukemia homeobox 3)", "PubChem SID": "SID255357281", "migration robust z-score": -1.39, "nuclei per well, duplicate mean": 5140}
{"gene": "REEP1 (receptor accessory protein 1)", "PubChem SID": "SID255360077", "migration robust z-score": 1.77, "nuclei per well, duplicate mean": 6105}

Sorted by “nuclei per well, duplicate mean” (ascending): 3 of the entries above.
{"gene": "PRMT7 (protein arginine methyltransferase 7)", "PubChem SID": "SID255358043", "migration robust z-score": -1.4, "nuclei per well, duplicate mean": 3606}
{"gene": "LYPD3 (LY6/PLAUR domain containing 3)", "PubChem SID": "SID255356904", "migration robust z-score": 0, "nuclei per well, duplicate mean": 4801}
{"gene": "WDR37 (WD repeat domain 37)", "PubChem SID": "SID255355845", "migration robust z-score": 0.25, "nuclei per well, duplicate mean": 5455}

The listing continues:
{"gene": "FAM3A (FAM3 metabolism regulating signaling molecule A)", "PubChem SID": "SID255359701", "migration robust z-score": -0.74, "nuclei per well, duplicate mean": 4388}
{"gene": "PKDREJ (polycystin family receptor for egg jelly)", "PubChem SID": "SID255355009", "migration robust z-score": 1.25, "nuclei per well, duplicate mean": 7264}
{"gene": "SERPINH1 (serpin family H member 1)", "PubChem SID": "SID255348722", "migration robust z-score": -0.24, "nuclei per well, duplicate mean": 5302}
{"gene": "TUFT1 (tuftelin 1)", "PubChem SID": "SID255353004", "migration robust z-score": -0.45, "nuclei per well, duplicate mean": 5832}
{"gene": "TNFRSF11A (TNF receptor superfamily member 11a)", "PubChem SID": "SID255353814", "migration robust z-score": 0.9, "nuclei per well, duplicate mean": 6038}
{"gene": "PANK1 (pantothenate kinase 1)", "PubChem SID": "SID255357921", "migration robust z-score": -0.29, "nuclei per well, duplicate mean": 4270}
{"gene": "OR51T1 (olfactory receptor family 51 subfamily T member 1)", "PubChem SID": "SID255365801", "migration robust z-score": -0.26, "nuclei per well, duplicate mean": 5855}
{"gene": "ZNF830 (zinc finger protein 830)", "PubChem SID": "SID255361929", "migration robust z-score": -0.34, "nuclei per well, duplicate mean": 4248}
{"gene": "DLG2 (discs large MAGUK scaffold protein 2)", "PubChem SID": "SID255349311", "migration robust z-score": 0.49, "nuclei per well, duplicate mean": 5490}
{"gene": "KRT40 (keratin 40)", "PubChem SID": "SID255362655", "migration robust z-score": -0.79, "nuclei per well, duplicate mean": 3182}
